Reference: PubChem BioAssay AID1508597 (Cure First, 2020)

Screen: 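Genes whose silencing sensitises or protects ovarian cancer cells against rucaparib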 (primary screen)
Cell system: human ovarian carcinoma lines grown from tumours: OCI-P5x (papillary serous) and OCI-C5x (clear cell)
Reagent: siRNA pool against human genes, 1.25 pmol siRNA per well
Duration: 72 h or 96 h, depending on the cell culture
Treatment: rucaparib 20 µM (about IC30) or vehicle, present until read-out
Rucaparib or vehicle: Vehicle
Cell line: OCI-C5x (clear cell)
Measured: 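ATP luminescence measured at 72 or 96 h according to the culture, then normalised and expressed as percent viability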
Direction: viability, normalised: higher = more viable cells remaining
Hit rule: 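Active when normalised viability falls below 80 percent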
Calls: active = viability under 80%; inactive = viability 80% or more
This is a random part of the about 2,100 reagents, in one setting of the screen. 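Calls flag viability under 80% in either arm, not effects specific to rucaparib; the reference for percent is not stated.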 Some reagents were tested in more than one well and are listed for each. No sequences are given here. Not given: the 100% reference.

no.	target gene	technical replicate	viability, normalised (%)	outcome
1	CXXC1 (CXXC finger protein 1)	1	63.8	active
2	CXXC1 (CXXC finger protein 1)	1	17.4	active
3	CXXC1 (CXXC finger protein 1)	2	48.8	active
4	CXXC1 (CXXC finger protein 1)	2	25.4	active
5	CXXC1 (CXXC finger protein 1)	3	55.9	active
6	CXXC1 (CXXC finger protein 1)	3	32.3	active
7	SMAD3 (SMAD family member 3)	1	37.9	active
8	SMAD3 (SMAD family member 3)	2	47.4	active
9	SMAD3 (SMAD family member 3)	3	37.3	active
10	ZCWPW2 (zinc finger CW-type and PWWP domain containing 2)	1	62.1	active
11	ZCWPW2 (zinc finger CW-type and PWWP domain containing 2)	2	29.2	active
12	ZCWPW2 (zinc finger CW-type and PWWP domain containing 2)	3	55.7	active
13	PIK3C3 (phosphatidylinositol 3-kinase catalytic subunit type 3)	1	66	active
14	PIK3C3 (phosphatidylinositol 3-kinase catalytic subunit type 3)	2	56.6	active
15	PIK3C3 (phosphatidylinositol 3-kinase catalytic subunit type 3)	3	69.7	active
16	MORC2 (MORC family CW-type zinc finger 2)	1	36.4	active
17	MORC2 (MORC family CW-type zinc finger 2)	2	36.6	active
18	MORC2 (MORC family CW-type zinc finger 2)	3	40.9	active
19	PHF20L1 (PHD finger protein 20 like 1)	1	43.3	active
20	PHF20L1 (PHD finger protein 20 like 1)	2	48.4	active
21	PHF20L1 (PHD finger protein 20 like 1)	3	41.5	active
22	SS18L1 (SS18L1 subunit of BAF chromatin remodeling complex)	1	70.1	active
23	SS18L1 (SS18L1 subunit of BAF chromatin remodeling complex)	2	76.3	active
24	SS18L1 (SS18L1 subunit of BAF chromatin remodeling complex)	3	44.5	active
25	SNRK (SNF related kinase)	1	44.2	active
26	SNRK (SNF related kinase)	2	62.2	active
27	SNRK (SNF related kinase)	3	43.7	active
28	RPL5 (ribosomal protein L5)	1	19.6	active
29	RPL5 (ribosomal protein L5)	2	32.3	active
30	RPL5 (ribosomal protein L5)	3	26.3	active
31	CSNK2A2 (casein kinase 2 alpha 2)	1	80.9	inactive
32	CSNK2A2 (casein kinase 2 alpha 2)	2	59.4	active
33	CSNK2A2 (casein kinase 2 alpha 2)	3	45.4	active
34	OXSR1 (oxidative stress responsive kinase 1)	1	75.6	active
35	OXSR1 (oxidative stress responsive kinase 1)	2	67.7	active
36	OXSR1 (oxidative stress responsive kinase 1)	3	50.2	active
37	RAC1 (Rac family small GTPase 1)	1	36.8	active
38	RAC1 (Rac family small GTPase 1)	2	28.1	active
39	RAC1 (Rac family small GTPase 1)	3	27.3	active
40	APEX1 (apurinic/apyrimidinic endodeoxyribonuclease 1)	1	37.9	active
41	APEX1 (apurinic/apyrimidinic endodeoxyribonuclease 1)	1	51.4	active
42	APEX1 (apurinic/apyrimidinic endodeoxyribonuclease 1)	2	35.3	active
43	APEX1 (apurinic/apyrimidinic endodeoxyribonuclease 1)	2	47.2	active
44	APEX1 (apurinic/apyrimidinic endodeoxyribonuclease 1)	3	41.7	active
45	APEX1 (apurinic/apyrimidinic endodeoxyribonuclease 1)	3	46.7	active
46	MORC3 (MORC family CW-type zinc finger 3)	1	43.9	active
47	MORC3 (MORC family CW-type zinc finger 3)	2	49.5	active
48	MORC3 (MORC family CW-type zinc finger 3)	3	58.8	active

Laid out differently: 3 of the entries above.
{"target gene": "ZCWPW2 (zinc finger CW-type and PWWP domain containing 2)", "technical replicate": "2", "viability, normalised (%)": 29.2, "outcome": "active"}
{"target gene": "ZCWPW2 (zinc finger CW-type and PWWP domain containing 2)", "technical replicate": "3", "viability, normalised (%)": 55.7, "outcome": "active"}
{"target gene": "PIK3C3 (phosphatidylinositol 3-kinase catalytic subunit type 3)", "technical replicate": "1", "viability, normalised (%)": 66, "outcome": "active"}

The listing continues.
no.	target gene	technical replicate	viability, normalised (%)	outcome
49	PRKD3 (protein kinase D3)	1	68	active
50	PRKD3 (protein kinase D3)	2	64.6	active
51	PRKD3 (protein kinase D3)	3	83.7	inactive
52	RFC1 (replication factor C subunit 1)	1	50.3	active
53	RFC1 (replication factor C subunit 1)	2	48.2	active
54	RFC1 (replication factor C subunit 1)	3	34.8	active
55	EME1 (essential meiotic structure-specific endonuclease 1)	1	48.1	active
56	EME1 (essential meiotic structure-specific endonuclease 1)	2	53.4	active
57	EME1 (essential meiotic structure-specific endonuclease 1)	3	60.8	active
58	PLCZ1 (phospholipase C zeta 1)	1	15.1	active
59	PLCZ1 (phospholipase C zeta 1)	2	60.4	active
60	PLCZ1 (phospholipase C zeta 1)	3	43.9	active
61	ERN2 (endoplasmic reticulum to nucleus signaling 2)	1	89.4	inactive
62	ERN2 (endoplasmic reticulum to nucleus signaling 2)	2	62.8	active
63	ERN2 (endoplasmic reticulum to nucleus signaling 2)	3	64.3	active
64	MSH6 (mutS homolog 6)	1	54.3	active
65	MSH6 (mutS homolog 6)	1	73.4	active
66	MSH6 (mutS homolog 6)	2	61.5	active
67	MSH6 (mutS homolog 6)	2	79.5	active
68	MSH6 (mutS homolog 6)	3	46.5	active
69	MSH6 (mutS homolog 6)	3	62.6	active
70	FOXF2 (forkhead box F2)	1	64.1	active
71	FOXF2 (forkhead box F2)	2	75.1	active
72	FOXF2 (forkhead box F2)	3	62.8	active
73	CBX5 (chromobox 5)	1	49.6	active
74	CBX5 (chromobox 5)	1	45	active
75	CBX5 (chromobox 5)	2	46.6	active
76	CBX5 (chromobox 5)	2	44.3	active
77	CBX5 (chromobox 5)	3	35.7	active
78	CBX5 (chromobox 5)	3	34.7	active
